From publication PMC7819943, “Rice protein-binding microarrays: a tool to detect cis-acting elements near promoter regions in rice”
The other results are listed elsewhere or left out.

These sequences were tested against T1, OsSMF1 (Oryza sativa, UniProt Q6ZLB0 1-436) (assay: protein-binding microarray (RPBM); PBS, 2% BSA, 51.3 ng/ul salmon testes DNA, 50 uM zinc acetate, 200 nM TF, 25 C, 1 h; high values mean tight binding). Settings: protein: recombinant; tags: N-terminal polyhistidine and DsRed monomer fusion (pET32a); chain copies: 2; label: CyDye5-dUTP incorporated in the synthesized complementary strand; 3' TTTTT single-stranded linker to array surface; dsDNA, one strand shown.
T1 sequence: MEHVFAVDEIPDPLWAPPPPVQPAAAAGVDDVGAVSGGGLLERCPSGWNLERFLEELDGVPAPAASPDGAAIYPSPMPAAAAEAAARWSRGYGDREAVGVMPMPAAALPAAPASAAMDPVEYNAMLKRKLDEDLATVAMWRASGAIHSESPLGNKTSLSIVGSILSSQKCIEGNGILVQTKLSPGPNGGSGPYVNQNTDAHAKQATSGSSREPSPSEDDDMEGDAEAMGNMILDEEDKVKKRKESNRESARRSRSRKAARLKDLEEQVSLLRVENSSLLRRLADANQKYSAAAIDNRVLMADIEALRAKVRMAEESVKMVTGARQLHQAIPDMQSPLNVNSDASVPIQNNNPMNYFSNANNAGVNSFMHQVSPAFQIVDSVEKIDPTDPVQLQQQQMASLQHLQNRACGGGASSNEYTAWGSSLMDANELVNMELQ
Summary of the method: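 The binding signal is fluorescence intensity per feature, in arbitrary units, read on an Axon 4000B scanner. Polyhistidine- and DsRed-tagged transcription factors (N-terminal fusions) from E. coli BL21-CodonPlus were purified on Ni–NTA and applied at 200 nM for 1 h at 25 °C to a double-stranded, BSA-blocked custom Agilent array in buffer with 50 µM zinc acetate.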
In the case of “GTGGTGTTACGCTACTCGTGCAGTAGTGCCTCATCATGGGCGGAGTCACCTAGTGCAG”, the binding signal is reported as 3500 fluorescence intensity (a.u.).
“TTATTTAGCACTCGTTGCAACGTACGGATATTATGCTACTCGGAGTCACCTAGTGCAG” was tested, and the binding signal was 3210 fluorescence intensity (a.u.).
For “GCTTATTAAACCCCAAAAGAACAGCTCAGCTGGCTCCCACCGGAGTCACCTAGTGCAG”, the binding signal was 3440 fluorescence intensity (a.u.).
With “GTCTTCTTCTCCCTTTGTGCTGAGGTGGACGCGAAGCCGCCGGAGTCACCTAGTGCAG” the binding signal was 7830 fluorescence intensity (a.u.).
For “CTCATTCTCTCGTGGACGCGGCAGTGGCGCCACGACCACGCGGAGTCACCTAGTGCAG”, the binding signal was 3890 fluorescence intensity (a.u.).
“TGAGCACTAGAAGGATCATAGGATTTGTTGCCAGAGTTGGCGGAGTCACCTAGTGCAG” was tested, and the binding signal was 3170 fluorescence intensity (a.u.).
“CGACCCTGTGACCAGGCGCATGCAGGTGTCACGCGATGTCCGGAGTCACCTAGTGCAG” was tested, and the binding signal was 4210 fluorescence intensity (a.u.).
With “CAACCTTATTCGTCACGCCAATTTGACAAAATGCAGTTATCGGAGTCACCTAGTGCAG” the binding signal was 4080 fluorescence intensity (a.u.).
With “TGTCTTTGGGCTTTCAGGGCGGTGTGCTGAGGCCGAGCGGCGGAGTCACCTAGTGCAG” the binding signal was 9300 fluorescence intensity (a.u.).
With “GTTTAATAGAACTCGAGTCAGAAGACAGTGTCTCTGGTGACGGAGTCACCTAGTGCAG” the binding signal was 3140 fluorescence intensity (a.u.).
In the case of “TGCGTTGGGAGTGAGTGGGACAGTGGTCAAGCCTCGTCATCGGAGTCACCTAGTGCAG”, the binding signal is reported as 3880 fluorescence intensity (a.u.).
For “TAAGTATGTGCGTTTGCATGTATTTATACGGGTAAGCATGCGGAGTCACCTAGTGCAG”, the binding signal was 4140 fluorescence intensity (a.u.).
In the case of “TTGCTTTCTTCCTGGCACTGTCAGCATATGTAAATTTTGTCGGAGTCACCTAGTGCAG”, the binding signal is reported as 4710 fluorescence intensity (a.u.).
For “GCTGTTCCCGTTCCTTGCCTTCGGCCACATCAGCCCGTTCCGGAGTCACCTAGTGCAG”, the binding signal was 11300 fluorescence intensity (a.u.).
“CGGGTGTCCAGGAATAGCTCGAGCTTCCGCCACGCCACGCCGGAGTCACCTAGTGCAG” was tested, and the binding signal was 4630 fluorescence intensity (a.u.).
With “TAAACTTCAAATATGACTGGAATGAGTAGATCAGTGCAGTCGGAGTCACCTAGTGCAG” the binding signal was 4390 fluorescence intensity (a.u.).
“AGCGCGCGTCAGGGCAGGCAGGCTCCACCATTTCTCCCAGCGGAGTCACCTAGTGCAG” was tested, and the binding signal was 3310 fluorescence intensity (a.u.).
“GACTAATCAAACAATTTCCCTCGCTATTAGTCACTGACAGCGGAGTCACCTAGTGCAG” was tested, and the binding signal was 3590 fluorescence intensity (a.u.).
“CCAAACGGCCACCTCACTCTCCCTCTCTCTATCTCTCTCTCGGAGTCACCTAGTGCAG” was tested, and the binding signal was 6000 fluorescence intensity (a.u.).
“TCAACTGCTGAGTCAATTAAACTGCTTGCTAGTTTCTCTACGGAGTCACCTAGTGCAG” was tested, and the binding signal was 7340 fluorescence intensity (a.u.).
“TTTTATATGCAAAGAAAAGTTTTCCCTGAAACTGTAATTTCGGAGTCACCTAGTGCAG” was tested, and the binding signal was 3490 fluorescence intensity (a.u.).
With “ATTATGAAATGGAGGGAGTACCGATCATACGTGTCGTAGTCGGAGTCACCTAGTGCAG” the binding signal was 5680 fluorescence intensity (a.u.).
“TTATTTGACATTTCAGTAATCTTTTGCAGATGAGCATATCCGGAGTCACCTAGTGCAG” was tested, and the binding signal was 3320 fluorescence intensity (a.u.).
“AGGAGGGTGGAGCTGTGCCAAACAGACCCTAAGTGTTTTCCGGAGTCACCTAGTGCAG” was tested, and the binding signal was 62100 fluorescence intensity (a.u.).
With “AAGTCAATGTCGACGTCGACGAGCTCCTCCGCAAGCGGTGCGGAGTCACCTAGTGCAG” the binding signal was 23900 fluorescence intensity (a.u.).
For “TTGGTTAGGAGCTGTTTTGTTTGTTGGGTTGAAATCGTCACGGAGTCACCTAGTGCAG”, the binding signal was 19800 fluorescence intensity (a.u.).
With “TTAACTAACTGCGTCATCGCCACCGTCGTCATGGCATCTTCGGAGTCACCTAGTGCAG” the binding signal was 9730 fluorescence intensity (a.u.).
With “ATTCGTTGCAGAAATCTGCTTGATGACGACTTGGTTGCATCGGAGTCACCTAGTGCAG” the binding signal was 3260 fluorescence intensity (a.u.).
For “CCTGTCCTGTGCTGCCGACCCCACGGTGTCACCTCGCGCCCGGAGTCACCTAGTGCAG”, the binding signal was 4550 fluorescence intensity (a.u.).
In the case of “CTCGACTCGACCGCGGCCGCGGCATTTCGAATTCCCAACCCGGAGTCACCTAGTGCAG”, the binding signal is reported as 3320 fluorescence intensity (a.u.).
For “CGCTGGATGAAATTTAGTAGACGTGTCACCCGGCATTTGCCGGAGTCACCTAGTGCAG”, the binding signal was 6340 fluorescence intensity (a.u.).
“CTTACGATTGAGACATGCCAGCTACTACTCCCAATTCTTGCGGAGTCACCTAGTGCAG” was tested, and the binding signal was 4330 fluorescence intensity (a.u.).
In the case of “TATCCATTCGCGCTCCCGGATCAGGTGGCCACCGAGGCGCCGGAGTCACCTAGTGCAG”, the binding signal is reported as 3190 fluorescence intensity (a.u.).
In the case of “TTATTTAAATCAAGATATATTTTAACGTCACCTTTCTCGTCGGAGTCACCTAGTGCAG”, the binding signal is reported as 3870 fluorescence intensity (a.u.).
For “GCATTGAGACTATTATATGAGCTGTCCTTAATAAATTAGTCGGAGTCACCTAGTGCAG”, the binding signal was 3980 fluorescence intensity (a.u.).
In the case of “GGTGAACAGAGATACACGTGGGTATACAAGTACGGGAAATCGGAGTCACCTAGTGCAG”, the binding signal is reported as 4900 fluorescence intensity (a.u.).
For “ATTATGGCCCGTCACGGATATGTGTCATCCGTGACGGGTCCGGAGTCACCTAGTGCAG”, the binding signal was 6820 fluorescence intensity (a.u.).
“AAGTGGATTAACAACGGACCAATTTGCAGGGGAACAAACCCGGAGTCACCTAGTGCAG” was tested, and the binding signal was 30000 fluorescence intensity (a.u.).
In the case of “GGTTGGCATTCTCGGGTTCATTACAACCAATCGCAGCTAGCGGAGTCACCTAGTGCAG”, the binding signal is reported as 3420 fluorescence intensity (a.u.).
With “CACATCTCCCATCTAAAACACGCATGCCCTGTCCGTTGTTCGGAGTCACCTAGTGCAG” the binding signal was 3400 fluorescence intensity (a.u.).
With “GTTGATCGGATTCAACCGTGCAAACAGAAAAGAAAGCGAACGGAGTCACCTAGTGCAG” the binding signal was 23400 fluorescence intensity (a.u.).
In the case of “ACTATTCTAAATTATAAACTAGGGCTCACTTCCACTGACACGGAGTCACCTAGTGCAG”, the binding signal is reported as 3200 fluorescence intensity (a.u.).
